Results are given in words; binding and its absence hold for the method and conditions named. In cells and extracts the contact can be indirect. For some assays here: Sequences can lack the tags named with a protein.

Drawing on article PMC6959987, this text covers binding for 2 molecules.

One assay deals with T1, Msd1-GFP (Drosophila) (UniProt Q9W0G7).
T1 sequence: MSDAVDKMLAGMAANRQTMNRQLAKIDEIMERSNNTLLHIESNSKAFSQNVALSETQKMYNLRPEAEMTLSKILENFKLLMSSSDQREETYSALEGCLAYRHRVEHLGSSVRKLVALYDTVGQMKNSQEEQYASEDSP
Description: co-IP; cleavable affinity purification (cl-AP): High Speed Supernatant of MG132-treated 0–3 hr Drosophila embryos incubated overnight at 4°C with GFP-TRAP-Sulfo or GFP-TRAP-PC beads (GFP-binding protein), washed in BRB80 + 0.1% IGEPAL, released with 50 mM DTT or UV; eluates by Western blot and SYPRO-ruby gel. A general note: Immunoblotting shows a protein as a band on a membrane.

Assay [1] deals with γ-Tubulin-GFP (Drosophila). The assay is described as above.

Turning to “γ-Tubulin (endogenously expressed, untagged) (Drosophila (endogenous in embryos))”, the binding result with Msd1-GFP (Drosophila) is listed as “no binding”.

B1: Dgt3 (a subunit of the Augmin complex) (protein, UniProt Q9W2P0 1-565)
chain: MGDLLSNSEFFKKLGVDSSNQWILYDEQMEMFFKFLSGNITDANILTERQVLEREEMQRRGEWLSASDRELKLLQIEAESPGLLNYKQQDVDALTMSIEAIEDASRDYATLLEDMMTTKHSITKHLGEVECVTAELQLREKDLIAECQSKAKQLEELQQENCRLSAEAKKAFTAPQLPPLFMHQLPLEQYFHKCDSFMQYFTLYVKENFKIQDYDEFQSAEEDLGREKAKLEDLERGIQFYALSYIRTKAKVKATQCLIDQLDLGKIHCLSLTDMAREMHDLQLLNDYQLSNTHDTLLNDLTIHIQQHTQRRIELVLYENTKLKLERAVRRHESDKKLTKIISDALSNAELLWIAIQLDCDKKRNCLDTSEELRDQAQATWQRIQTMRSINASYQGICAQFVQEIANLLSAHLGQNIKATEAKACLFEYEKFGRLLSYSFQSMLNRKSCAAVQDQLAELKRLEQTLRPFVYDSPLEQPMFENVRYLSAIYNVTQQQTRLDESGRSLRKDFLENVVGRIERDKLYRYSVVLWIWFLTEPQRMMHAIDEVKKAAAAVIRPGGGLHRK
With B1, the binding result in assay [1] was “no binding”.
